In article PMC9346485 one finds binding data, which are given here for two molecules.

The chains behind the UniProt entries cited, without tags or fusion partners.
UniProt Q8R4B8: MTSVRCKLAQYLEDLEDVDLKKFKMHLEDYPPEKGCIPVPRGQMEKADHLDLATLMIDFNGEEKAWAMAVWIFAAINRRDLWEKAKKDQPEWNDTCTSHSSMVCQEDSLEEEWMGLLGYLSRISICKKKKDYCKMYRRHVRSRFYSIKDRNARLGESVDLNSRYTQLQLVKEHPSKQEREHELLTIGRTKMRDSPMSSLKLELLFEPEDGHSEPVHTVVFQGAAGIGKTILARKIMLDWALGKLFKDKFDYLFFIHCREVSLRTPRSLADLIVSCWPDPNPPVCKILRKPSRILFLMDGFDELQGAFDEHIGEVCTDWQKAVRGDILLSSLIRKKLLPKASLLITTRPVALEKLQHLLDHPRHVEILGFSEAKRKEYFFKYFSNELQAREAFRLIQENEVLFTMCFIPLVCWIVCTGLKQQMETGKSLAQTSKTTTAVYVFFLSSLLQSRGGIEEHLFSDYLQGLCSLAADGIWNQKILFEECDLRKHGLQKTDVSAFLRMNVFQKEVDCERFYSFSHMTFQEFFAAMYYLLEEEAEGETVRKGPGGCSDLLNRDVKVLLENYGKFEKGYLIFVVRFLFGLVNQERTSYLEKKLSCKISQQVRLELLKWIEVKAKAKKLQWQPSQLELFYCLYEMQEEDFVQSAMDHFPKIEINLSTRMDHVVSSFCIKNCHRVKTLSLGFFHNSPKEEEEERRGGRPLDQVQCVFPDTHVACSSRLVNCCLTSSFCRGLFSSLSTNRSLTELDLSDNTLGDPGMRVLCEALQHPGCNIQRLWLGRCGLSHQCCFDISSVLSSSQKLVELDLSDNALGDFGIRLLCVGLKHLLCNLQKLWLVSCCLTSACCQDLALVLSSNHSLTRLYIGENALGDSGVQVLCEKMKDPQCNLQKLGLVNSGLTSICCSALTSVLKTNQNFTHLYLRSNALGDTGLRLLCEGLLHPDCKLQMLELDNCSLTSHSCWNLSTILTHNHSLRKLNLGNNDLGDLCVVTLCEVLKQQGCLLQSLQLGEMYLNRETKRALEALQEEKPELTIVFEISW

No constants are given. Whether binding was seen depends on the method and setting. In cells and extracts the contact can be indirect. Some binding calls cover weakened binding; strength is not graded here.

This assay deals with NLRP3 (mouse (endogenous in HoxB8 macrophages)) (UniProt Q8R4B8). The assay can be described thus: co-IP; NLRP3 immune precipitated from lysates of HoxB8 macrophages with a magnetic bead-coupled antibody; cells untreated or treated with LPS or LPS + GM-CSF for 12 h; beads without NLRP3 antibody as negative control; western blot for NLRP3 and caspase-1. In general terms: In western blotting, separated proteins are transferred to a membrane and probed.

B1: caspase‐1 (protein, UniProt P29452 1-402)
chain: MADKILRAKRKQFINSVSIGTINGLLDELLEKRVLNQEEMDKIKLANITAMDKARDLCDHVSKKGPQASQIFITYICNEDCYLAGILELQSAPSAETFVATEDSKGGHPSSSETKEEQNKEDGTFPGLTGTLKFCPLEKAQKLWKENPSEIYPIMNTTTRTRLALIICNTEFQHLSPRVGAQVDLREMKLLLEDLGYTVKVKENLTALEMVKEVKEFAACPEHKTSDSTFLVFMSHGIQEGICGTTYSNEVSDILKVDTIFQMMNTLKCPSLKDKPKVIIIQACRGEKQGVVLLKDSVRDSEEDFLTDAIFEDDGIKKAHIEKDFIAFCSSTPDNVSWRHPVRGSLFIESLIKHMKEYAWSCDLEDIFRKVRFSFEQPEFRLQMPTADRVTLTKRFYLFPGH
On to B1, for which the binding entry is listed as “binds”.

B2: caspase‐1 p10‐fragment (domain or fragment, UniProt P29452 315-402)
chain: GIKKAHIEKDFIAFCSSTPDNVSWRHPVRGSLFIESLIKHMKEYAWSCDLEDIFRKVRFSFEQPEFRLQMPTADRVTLTKRFYLFPGH
Consider B2, for which the binding result is listed as “binds”.
